Experimental data published in publication PMC12222027, “In situ structure of a bacterial flagellar motor at subnanometre resolution reveals adaptations for increased torque” (Nature Microbiology, 2025).
These are yes or no findings as the source states them, for the method shown. Some entries that bind do so weakly or less than the wild type.

By UniProt entry, the sequences of proteins in these tests, tags left out.
UniProt A0A6F9L7Y3: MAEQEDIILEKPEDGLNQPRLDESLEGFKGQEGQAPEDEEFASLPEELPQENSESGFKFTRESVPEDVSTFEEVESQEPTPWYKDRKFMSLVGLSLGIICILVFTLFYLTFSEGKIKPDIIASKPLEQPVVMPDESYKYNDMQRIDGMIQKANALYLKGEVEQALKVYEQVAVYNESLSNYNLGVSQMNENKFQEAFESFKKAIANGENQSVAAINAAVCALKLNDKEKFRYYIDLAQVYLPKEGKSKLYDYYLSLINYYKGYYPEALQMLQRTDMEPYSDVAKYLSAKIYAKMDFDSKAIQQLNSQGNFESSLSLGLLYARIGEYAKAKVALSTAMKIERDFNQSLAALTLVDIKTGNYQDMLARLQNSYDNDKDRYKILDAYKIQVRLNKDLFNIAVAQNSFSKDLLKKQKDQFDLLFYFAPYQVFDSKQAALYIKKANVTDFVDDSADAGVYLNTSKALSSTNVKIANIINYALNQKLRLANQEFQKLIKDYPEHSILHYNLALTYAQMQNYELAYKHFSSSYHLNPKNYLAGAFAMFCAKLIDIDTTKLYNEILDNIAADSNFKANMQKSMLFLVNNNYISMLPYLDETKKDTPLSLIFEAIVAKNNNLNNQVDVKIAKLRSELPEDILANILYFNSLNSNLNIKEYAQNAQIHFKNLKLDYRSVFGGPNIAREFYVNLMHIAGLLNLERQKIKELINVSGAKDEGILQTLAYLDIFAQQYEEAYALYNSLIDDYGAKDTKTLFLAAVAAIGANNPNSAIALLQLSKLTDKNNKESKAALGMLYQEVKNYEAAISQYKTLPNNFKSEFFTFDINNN

Target: PflB (proximal disk rim, C. jejuni 81-176, in the motor in situ) (C. jejuni 81-176 (endogenous in minicells))
Assay: cryo-EM structure; in situ single-particle analysis of motors in C. jejuni ΔflhG ΔflaAB minicells; C17 focused refinement of the periplasmic scaffold and first basal disk ring (7.9 Å); AlphaFold2 models docked or flexibly fitted into the map

PflB (proximal disk rim, C. jejuni 81-176, in the motor in situ) (from UniProt A0A6F9L7Y3 1-820)
binding: binds
